The values that follow come from the supplement of paper PMC10849652.

By UniProt entry, the sequences of proteins in these tests, tags left out. Where a name states a change or a piece, a line headed by the entry shows the natural chain unless it says otherwise.
UniProt Q9P2W9: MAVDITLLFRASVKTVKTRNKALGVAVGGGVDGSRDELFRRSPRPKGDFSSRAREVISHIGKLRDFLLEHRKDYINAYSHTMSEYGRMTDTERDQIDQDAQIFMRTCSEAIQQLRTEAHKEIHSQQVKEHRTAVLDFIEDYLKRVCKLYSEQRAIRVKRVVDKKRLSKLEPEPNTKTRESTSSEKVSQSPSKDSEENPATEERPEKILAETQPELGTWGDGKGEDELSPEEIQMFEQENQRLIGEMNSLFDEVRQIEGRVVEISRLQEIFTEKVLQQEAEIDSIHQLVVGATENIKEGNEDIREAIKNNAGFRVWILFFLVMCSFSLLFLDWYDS
UniProt Q92844: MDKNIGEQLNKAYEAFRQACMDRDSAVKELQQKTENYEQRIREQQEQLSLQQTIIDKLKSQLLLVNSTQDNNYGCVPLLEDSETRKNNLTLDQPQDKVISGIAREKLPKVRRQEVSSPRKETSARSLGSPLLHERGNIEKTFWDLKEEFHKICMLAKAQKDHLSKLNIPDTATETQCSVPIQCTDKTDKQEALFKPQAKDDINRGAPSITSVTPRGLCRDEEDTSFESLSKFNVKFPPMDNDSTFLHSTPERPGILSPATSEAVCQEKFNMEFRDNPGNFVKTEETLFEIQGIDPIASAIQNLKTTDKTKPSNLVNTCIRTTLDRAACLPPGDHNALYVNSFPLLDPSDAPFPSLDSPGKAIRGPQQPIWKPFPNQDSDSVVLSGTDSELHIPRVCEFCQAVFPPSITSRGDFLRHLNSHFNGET
UniProt Q5VSL9: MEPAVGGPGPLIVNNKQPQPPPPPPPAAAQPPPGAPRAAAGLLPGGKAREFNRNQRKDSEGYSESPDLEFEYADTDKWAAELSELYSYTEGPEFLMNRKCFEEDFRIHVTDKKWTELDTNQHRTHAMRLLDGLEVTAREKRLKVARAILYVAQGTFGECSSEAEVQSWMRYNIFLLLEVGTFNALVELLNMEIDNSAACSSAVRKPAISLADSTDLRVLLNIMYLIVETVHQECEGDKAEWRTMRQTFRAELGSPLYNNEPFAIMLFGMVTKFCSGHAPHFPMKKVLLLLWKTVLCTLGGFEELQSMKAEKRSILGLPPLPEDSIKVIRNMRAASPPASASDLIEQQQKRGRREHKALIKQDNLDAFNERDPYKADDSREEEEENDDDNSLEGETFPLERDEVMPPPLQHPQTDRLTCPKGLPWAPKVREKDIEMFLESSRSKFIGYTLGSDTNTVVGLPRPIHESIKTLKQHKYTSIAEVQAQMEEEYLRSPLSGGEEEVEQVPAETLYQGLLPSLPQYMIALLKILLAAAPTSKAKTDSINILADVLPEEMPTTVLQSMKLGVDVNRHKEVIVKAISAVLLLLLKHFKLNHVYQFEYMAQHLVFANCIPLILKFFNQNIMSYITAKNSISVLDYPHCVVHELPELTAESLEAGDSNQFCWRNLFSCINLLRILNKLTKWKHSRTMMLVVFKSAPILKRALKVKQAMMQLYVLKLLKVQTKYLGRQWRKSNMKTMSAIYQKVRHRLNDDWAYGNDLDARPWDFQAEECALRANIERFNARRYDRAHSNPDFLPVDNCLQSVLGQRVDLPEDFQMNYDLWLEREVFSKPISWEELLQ
UniProt Q12846: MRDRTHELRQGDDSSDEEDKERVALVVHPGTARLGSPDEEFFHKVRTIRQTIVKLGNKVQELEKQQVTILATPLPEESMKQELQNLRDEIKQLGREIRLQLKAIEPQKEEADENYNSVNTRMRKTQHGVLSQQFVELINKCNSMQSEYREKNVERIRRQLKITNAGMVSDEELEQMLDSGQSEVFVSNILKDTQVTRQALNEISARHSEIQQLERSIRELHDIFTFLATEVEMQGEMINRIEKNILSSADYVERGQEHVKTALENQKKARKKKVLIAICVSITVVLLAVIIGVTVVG
UniProt Q7RTN6: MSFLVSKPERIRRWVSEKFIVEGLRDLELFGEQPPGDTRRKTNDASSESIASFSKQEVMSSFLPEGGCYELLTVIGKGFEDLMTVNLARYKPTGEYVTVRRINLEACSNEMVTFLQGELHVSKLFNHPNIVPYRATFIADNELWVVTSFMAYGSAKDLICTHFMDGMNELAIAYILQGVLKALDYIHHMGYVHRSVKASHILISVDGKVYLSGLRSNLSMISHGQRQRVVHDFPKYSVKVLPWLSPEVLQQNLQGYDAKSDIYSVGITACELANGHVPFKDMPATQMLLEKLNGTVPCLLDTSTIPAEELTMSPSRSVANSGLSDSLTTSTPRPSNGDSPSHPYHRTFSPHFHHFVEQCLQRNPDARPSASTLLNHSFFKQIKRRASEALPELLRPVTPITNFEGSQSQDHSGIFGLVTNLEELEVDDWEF
UniProt Q13190: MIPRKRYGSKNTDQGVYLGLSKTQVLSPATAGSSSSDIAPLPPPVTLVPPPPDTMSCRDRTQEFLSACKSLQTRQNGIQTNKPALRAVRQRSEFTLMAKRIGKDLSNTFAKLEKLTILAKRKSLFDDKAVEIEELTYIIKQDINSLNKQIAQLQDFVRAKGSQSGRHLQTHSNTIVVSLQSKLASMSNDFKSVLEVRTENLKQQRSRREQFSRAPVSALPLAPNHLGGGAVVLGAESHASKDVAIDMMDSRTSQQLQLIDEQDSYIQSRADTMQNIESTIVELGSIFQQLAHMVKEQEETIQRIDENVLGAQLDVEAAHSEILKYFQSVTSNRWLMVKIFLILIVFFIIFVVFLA
UniProt Q8IWZ8: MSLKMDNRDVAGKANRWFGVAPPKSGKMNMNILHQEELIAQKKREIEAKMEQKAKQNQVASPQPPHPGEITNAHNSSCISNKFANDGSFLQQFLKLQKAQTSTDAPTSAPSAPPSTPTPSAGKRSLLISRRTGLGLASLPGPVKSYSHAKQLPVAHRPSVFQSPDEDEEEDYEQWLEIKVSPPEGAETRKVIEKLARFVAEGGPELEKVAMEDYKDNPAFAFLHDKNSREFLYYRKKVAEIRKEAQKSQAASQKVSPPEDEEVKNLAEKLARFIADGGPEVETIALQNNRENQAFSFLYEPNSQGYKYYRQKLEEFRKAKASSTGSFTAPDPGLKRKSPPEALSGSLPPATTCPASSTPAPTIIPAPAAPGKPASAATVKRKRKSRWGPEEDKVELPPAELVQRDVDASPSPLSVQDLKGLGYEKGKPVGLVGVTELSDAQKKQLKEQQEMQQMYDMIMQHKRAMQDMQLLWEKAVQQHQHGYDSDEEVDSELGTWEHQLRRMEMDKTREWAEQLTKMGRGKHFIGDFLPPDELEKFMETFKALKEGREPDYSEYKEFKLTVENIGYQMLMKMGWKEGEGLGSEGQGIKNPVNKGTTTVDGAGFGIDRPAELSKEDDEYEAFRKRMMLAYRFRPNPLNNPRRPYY
UniProt Q9NVG8: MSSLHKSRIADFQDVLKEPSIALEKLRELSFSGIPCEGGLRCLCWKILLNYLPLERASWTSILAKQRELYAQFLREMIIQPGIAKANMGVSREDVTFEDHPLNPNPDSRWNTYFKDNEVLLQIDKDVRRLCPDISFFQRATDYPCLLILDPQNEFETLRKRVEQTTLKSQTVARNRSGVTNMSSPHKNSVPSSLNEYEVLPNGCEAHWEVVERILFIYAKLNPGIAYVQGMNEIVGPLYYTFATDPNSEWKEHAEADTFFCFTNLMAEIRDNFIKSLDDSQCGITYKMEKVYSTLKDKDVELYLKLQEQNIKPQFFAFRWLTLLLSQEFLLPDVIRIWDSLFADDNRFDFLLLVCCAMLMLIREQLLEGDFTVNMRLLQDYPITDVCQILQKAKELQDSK
UniProt Q6ICL3: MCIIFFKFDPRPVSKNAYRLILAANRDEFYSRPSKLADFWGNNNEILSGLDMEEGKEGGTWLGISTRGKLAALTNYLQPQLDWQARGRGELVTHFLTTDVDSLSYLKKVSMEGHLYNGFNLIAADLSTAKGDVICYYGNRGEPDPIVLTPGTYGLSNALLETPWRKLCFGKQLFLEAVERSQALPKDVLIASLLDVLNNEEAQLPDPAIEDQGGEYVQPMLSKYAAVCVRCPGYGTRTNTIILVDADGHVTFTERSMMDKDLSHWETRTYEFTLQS
UniProt O43752: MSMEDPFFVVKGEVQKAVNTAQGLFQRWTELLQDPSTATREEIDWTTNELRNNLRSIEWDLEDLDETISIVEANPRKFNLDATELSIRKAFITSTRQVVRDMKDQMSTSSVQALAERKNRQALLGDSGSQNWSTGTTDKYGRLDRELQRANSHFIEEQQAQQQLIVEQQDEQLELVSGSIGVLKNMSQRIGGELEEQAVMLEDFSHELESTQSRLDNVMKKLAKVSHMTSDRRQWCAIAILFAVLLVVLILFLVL
UniProt Q9H2K8: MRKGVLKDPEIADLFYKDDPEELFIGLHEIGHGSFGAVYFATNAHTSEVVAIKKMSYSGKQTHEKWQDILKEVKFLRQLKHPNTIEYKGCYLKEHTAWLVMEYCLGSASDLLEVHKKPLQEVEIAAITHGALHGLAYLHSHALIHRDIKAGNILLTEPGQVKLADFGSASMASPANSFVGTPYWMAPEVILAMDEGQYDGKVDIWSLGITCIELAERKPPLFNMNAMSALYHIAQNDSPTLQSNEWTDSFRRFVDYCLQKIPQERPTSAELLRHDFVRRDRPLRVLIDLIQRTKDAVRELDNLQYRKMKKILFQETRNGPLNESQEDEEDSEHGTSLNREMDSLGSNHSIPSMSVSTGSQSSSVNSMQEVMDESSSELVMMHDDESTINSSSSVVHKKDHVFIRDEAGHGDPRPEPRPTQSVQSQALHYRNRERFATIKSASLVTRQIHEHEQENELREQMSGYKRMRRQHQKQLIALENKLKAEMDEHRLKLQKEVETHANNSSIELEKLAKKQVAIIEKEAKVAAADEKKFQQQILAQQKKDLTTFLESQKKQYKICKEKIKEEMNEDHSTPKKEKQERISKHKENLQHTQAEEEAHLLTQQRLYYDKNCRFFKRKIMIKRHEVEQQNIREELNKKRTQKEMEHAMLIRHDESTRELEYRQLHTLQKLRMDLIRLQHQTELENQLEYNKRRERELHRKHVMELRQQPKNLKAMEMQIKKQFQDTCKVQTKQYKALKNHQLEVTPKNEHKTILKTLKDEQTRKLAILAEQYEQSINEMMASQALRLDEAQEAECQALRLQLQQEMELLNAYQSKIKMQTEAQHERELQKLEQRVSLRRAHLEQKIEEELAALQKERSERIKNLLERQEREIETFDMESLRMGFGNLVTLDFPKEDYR
UniProt Q17R31: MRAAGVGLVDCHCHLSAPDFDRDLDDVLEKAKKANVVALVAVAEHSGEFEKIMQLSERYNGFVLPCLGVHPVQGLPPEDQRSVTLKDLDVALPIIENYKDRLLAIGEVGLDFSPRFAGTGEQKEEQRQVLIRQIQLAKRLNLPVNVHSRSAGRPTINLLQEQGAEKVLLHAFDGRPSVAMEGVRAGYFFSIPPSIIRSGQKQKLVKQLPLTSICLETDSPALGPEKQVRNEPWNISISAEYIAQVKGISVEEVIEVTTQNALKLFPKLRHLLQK
UniProt O75410: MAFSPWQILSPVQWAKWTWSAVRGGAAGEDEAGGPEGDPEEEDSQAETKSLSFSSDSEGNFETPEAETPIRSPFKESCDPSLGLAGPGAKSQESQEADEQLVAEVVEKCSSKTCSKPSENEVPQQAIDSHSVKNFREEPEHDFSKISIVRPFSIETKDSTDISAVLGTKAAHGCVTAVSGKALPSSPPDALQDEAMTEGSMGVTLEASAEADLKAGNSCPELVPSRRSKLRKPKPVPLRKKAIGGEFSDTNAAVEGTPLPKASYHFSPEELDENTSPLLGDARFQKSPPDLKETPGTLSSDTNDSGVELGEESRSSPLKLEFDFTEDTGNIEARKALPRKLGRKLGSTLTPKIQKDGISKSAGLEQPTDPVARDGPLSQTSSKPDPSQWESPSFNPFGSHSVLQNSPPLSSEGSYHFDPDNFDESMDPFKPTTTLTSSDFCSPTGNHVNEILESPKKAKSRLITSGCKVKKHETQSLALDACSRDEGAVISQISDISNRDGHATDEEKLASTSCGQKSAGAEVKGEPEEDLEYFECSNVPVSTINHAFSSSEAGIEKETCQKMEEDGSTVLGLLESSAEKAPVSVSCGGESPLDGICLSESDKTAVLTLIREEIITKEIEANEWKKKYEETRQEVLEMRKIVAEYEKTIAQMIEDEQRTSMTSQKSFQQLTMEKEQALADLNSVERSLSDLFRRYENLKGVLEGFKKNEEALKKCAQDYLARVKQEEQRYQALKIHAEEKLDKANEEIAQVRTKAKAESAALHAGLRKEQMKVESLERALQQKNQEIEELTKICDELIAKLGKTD
UniProt Q9NZ72: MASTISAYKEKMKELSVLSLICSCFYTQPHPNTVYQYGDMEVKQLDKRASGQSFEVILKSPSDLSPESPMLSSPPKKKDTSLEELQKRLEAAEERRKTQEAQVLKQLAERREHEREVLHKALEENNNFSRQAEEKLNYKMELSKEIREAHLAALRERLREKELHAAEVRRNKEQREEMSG

This is one part of the list.

Compound in the experiment: COC1=CC=C(C=C1)CN2C=CC3=C2C=C(C=C3)C(=O)NO
Briefly: log2 fold change, soluble protein after heating vs DMSO (PISA); higher = thermal stabilisation; K562 cells, 10 uM, 30 min; active = over 0.2 and 3.5 SD of the protein, either way, in both replicates (recomputed). The essentials:
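Soluble protein was defined as the supernatant after 21,000xg for 90 min. It came from K562 cells at 2×10^6 cells/mL given 10 μM compound for 30 min, heated in aliquots for 3 min across 48°C-58°C, pooled, and extracted in PBS with 0.5% NP-40 at 4°C, and was quantified by TMTpro 16plex LC-MS/MS with equalised channel sums. Thermal stability against control samples, from duplicates, is reported as log2 fold change.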
On to STX18 (UniProt Q9P2W9), for which the log2 fold change is inactive: 0.007.
In the case of SYMPK (UniProt Q92797) it was inactive: 0.069.
Take SURF1 (UniProt Q15526): the log2 fold change is inactive: 0.053.
The figure for TANK (UniProt Q92844) is inactive: 0.017.
In the case of TAOK1 (UniProt Q7L7X3) it was inactive: -0.046; in that of STRIP1 (UniProt Q5VSL9), inactive: -0.088; in that of STX4 (UniProt Q12846), inactive: -0.046.
On to TBC1D10B (UniProt Q4KMP7), for which the log2 fold change is inactive: -0.001.
The figure for STRADA (UniProt Q7RTN6) is inactive: 0.003; for STX5 (UniProt Q13190) it is inactive: 0.007; for STXBP2 isoform 3 (UniProt Q15833) it is inactive: 0.021.
In the case of SULT1A1 (UniProt P50225) it was inactive: 0.161; in that of SUGP1 (UniProt Q8IWZ8), inactive: 0.027; in that of TBC1D13 (UniProt Q9NVG8), inactive: 0.058.
The figure for STOM (UniProt P27105) is inactive: 0.004; for SYNCRIP (UniProt O60506) it is inactive: -0.044.
As for TANGO2 isoform 4 (UniProt Q6ICL3), the log2 fold change was inactive: 0.022.
As to STX6 (UniProt O43752), the log2 fold change is inactive: 0.08.
For TAOK3 (UniProt Q9H2K8), the log2 fold change is inactive: 0.047.
Regarding TARBP2 (UniProt Q15633), the log2 fold change was inactive: -0.159.
The figure for TACO1 (UniProt Q9BSH4) is inactive: 0.095; for SURF2 (UniProt Q15527) it is inactive: 0.038; for SYNCRIP isoform 3 (UniProt O60506) it is inactive: -0.203.
The figure for SUPT4H1 (UniProt P63272) is inactive: 0.113; for TATDN3 isoform 3 (UniProt Q17R31) it is inactive: -0.093; for TACC1 isoform 2 (UniProt O75410) it is inactive: -0.013.
In the case of TAX1BP1 (UniProt Q86VP1) it was inactive: -0.03; in that of STMN3 (UniProt Q9NZ72), inactive: 0.026; in that of TAF8 isoform 2 (UniProt Q7Z7C8), inactive: -0.054.
Consider TARSL2 (UniProt A2RTX5), for which the log2 fold change is inactive: -0.029.
In the case of STRN (UniProt O43815) it was inactive: -0.002; in that of SUN1 isoform 9 (UniProt O94901), inactive: -0.062; in that of STK38 (UniProt Q15208), inactive: 0.029.
The figure for STOML2 (UniProt Q9UJZ1) is inactive: 0.041; for TAGLN2 isoform 2 (UniProt P37802) it is inactive: 0.04.
In the case of STX12 (UniProt Q86Y82) it was inactive: 0.013; in that of SYNE2 isoform 2 (UniProt Q8WXH0), inactive: 0.112.
In the case of SULT1A3 isoform 3 (UniProt P0DMM9), the log2 fold change was inactive: -0.02.
